From publication PMC8885657, “HPV infection alters vaginal microbiome through down-regulating host mucosal innate peptides used by Lactobacilli as amino acid sources” (Nature Communications, 2022)
No constants are given. Whether binding was seen depends on the method and setting. In cells and extracts the contact can be indirect. Some results given as binding are weak or reduced against the parent protein; the word gives no strength. For some of these results: Where a sequence is shown, tags or fusion partners need not be part of it.

Protein sequences, listed by entry. Tags and fused reporters are not part of them. Lines headed by an entry give the natural chain unless they say otherwise; changes in a name come on top. Chains listed by the source or under a name are the forms on record and can include a tag or linker. Residues count along the entry.
UniProt P06788: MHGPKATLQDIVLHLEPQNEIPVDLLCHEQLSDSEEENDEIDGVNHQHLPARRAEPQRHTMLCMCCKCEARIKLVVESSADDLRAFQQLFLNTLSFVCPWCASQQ
UniProt P03129: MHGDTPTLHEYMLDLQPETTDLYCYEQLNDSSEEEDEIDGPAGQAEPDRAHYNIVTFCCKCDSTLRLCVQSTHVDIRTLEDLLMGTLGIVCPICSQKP
HPV16 E7 C-terminal domain (37-98 amino acids) fused to Gluc2: residues 37-98 of P03129
UniProt P06430: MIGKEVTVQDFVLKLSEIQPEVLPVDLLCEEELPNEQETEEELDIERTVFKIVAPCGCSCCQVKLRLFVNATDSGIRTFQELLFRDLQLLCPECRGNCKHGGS
UniProt P48729: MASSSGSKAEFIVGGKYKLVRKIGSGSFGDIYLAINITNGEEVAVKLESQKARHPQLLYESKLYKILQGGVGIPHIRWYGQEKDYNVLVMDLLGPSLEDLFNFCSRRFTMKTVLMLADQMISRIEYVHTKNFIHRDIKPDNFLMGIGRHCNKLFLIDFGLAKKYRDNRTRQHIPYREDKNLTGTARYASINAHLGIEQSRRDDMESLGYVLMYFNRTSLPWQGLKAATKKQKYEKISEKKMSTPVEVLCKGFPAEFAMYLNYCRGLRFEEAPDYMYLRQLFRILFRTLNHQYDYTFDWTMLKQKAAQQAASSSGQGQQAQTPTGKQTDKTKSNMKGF
UniProt Q9Y6K9: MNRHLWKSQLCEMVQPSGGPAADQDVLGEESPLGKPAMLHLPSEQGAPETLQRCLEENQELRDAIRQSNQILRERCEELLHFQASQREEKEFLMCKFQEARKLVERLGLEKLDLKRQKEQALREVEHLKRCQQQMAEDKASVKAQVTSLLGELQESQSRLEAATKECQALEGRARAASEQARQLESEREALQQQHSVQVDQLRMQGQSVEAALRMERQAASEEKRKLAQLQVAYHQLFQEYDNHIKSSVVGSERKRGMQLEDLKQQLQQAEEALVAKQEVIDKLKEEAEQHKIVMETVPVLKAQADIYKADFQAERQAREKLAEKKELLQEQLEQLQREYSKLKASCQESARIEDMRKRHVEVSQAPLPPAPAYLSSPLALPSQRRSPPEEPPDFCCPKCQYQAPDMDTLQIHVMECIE
UniProt Q9Y297: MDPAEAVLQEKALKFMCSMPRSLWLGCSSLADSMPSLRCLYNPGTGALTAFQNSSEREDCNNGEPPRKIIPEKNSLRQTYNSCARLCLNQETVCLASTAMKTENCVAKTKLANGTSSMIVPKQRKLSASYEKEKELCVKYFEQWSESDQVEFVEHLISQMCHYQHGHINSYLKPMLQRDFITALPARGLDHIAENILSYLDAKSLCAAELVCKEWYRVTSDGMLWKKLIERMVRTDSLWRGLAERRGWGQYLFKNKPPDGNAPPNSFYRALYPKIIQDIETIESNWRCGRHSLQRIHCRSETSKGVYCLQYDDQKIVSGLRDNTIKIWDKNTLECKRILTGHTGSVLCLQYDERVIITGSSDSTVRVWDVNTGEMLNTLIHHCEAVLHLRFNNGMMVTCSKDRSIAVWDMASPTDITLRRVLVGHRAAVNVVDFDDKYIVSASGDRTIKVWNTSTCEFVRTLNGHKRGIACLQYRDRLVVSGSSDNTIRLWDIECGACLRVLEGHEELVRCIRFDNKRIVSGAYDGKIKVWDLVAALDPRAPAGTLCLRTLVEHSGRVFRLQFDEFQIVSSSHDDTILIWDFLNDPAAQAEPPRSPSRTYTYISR
UniProt Q9HCP0: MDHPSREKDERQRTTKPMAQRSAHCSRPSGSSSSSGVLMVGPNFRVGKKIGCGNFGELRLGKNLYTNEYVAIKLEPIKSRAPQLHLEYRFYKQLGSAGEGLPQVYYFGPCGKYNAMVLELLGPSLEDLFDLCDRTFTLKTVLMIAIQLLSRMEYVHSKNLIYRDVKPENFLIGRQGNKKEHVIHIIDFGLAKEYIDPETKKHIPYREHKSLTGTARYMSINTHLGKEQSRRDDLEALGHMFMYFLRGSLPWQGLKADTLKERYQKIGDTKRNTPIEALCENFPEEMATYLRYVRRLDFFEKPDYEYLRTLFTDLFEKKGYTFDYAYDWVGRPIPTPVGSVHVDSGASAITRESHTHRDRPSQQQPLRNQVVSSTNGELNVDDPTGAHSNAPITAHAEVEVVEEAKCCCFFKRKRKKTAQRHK
UniProt P78368: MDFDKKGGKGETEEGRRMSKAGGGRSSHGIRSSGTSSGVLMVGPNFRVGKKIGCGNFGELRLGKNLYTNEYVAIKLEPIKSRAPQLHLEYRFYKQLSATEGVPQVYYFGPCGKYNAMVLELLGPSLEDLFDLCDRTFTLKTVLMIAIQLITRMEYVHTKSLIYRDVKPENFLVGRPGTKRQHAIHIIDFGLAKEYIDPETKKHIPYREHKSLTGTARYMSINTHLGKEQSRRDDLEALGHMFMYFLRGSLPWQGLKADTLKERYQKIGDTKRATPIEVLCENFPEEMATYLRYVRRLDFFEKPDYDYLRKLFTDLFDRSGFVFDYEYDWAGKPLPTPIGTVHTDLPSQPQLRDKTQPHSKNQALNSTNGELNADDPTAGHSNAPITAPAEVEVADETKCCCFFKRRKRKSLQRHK
UniProt Q9Y6M4: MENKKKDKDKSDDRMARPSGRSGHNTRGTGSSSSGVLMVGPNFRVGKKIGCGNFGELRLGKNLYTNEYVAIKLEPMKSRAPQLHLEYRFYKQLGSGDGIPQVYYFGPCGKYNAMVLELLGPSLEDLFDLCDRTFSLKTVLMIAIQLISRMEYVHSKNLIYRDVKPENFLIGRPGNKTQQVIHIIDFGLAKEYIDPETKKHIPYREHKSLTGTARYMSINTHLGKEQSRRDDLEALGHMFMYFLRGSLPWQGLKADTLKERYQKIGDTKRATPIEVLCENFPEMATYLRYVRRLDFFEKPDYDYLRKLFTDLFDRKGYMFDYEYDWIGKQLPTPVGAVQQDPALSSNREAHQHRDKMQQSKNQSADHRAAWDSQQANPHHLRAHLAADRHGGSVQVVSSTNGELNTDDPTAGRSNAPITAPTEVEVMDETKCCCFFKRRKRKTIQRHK
UniProt P49841: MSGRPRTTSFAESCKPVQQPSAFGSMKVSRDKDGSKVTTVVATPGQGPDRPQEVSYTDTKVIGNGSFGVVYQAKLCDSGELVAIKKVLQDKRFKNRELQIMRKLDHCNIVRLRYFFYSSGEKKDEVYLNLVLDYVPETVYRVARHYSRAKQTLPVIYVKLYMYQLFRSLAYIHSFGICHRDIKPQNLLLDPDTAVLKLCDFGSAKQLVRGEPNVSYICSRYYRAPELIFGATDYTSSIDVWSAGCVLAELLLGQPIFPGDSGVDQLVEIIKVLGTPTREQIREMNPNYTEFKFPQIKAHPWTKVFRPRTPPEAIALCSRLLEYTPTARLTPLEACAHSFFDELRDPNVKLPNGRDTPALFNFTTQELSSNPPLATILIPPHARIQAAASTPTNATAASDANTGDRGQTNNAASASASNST

Columns and labels:
[1] = target: T1, HPV39 E7 fused to Gluc2 (pSPICA-N2-E7) (HPV39) (UniProt P24837); assay: split reporter
T1 sequence: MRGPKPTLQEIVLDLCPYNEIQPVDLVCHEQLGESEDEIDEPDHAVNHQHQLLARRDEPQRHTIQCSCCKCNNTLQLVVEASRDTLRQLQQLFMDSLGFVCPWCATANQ

[2] = target: T2, HPV33 E7 fused to Gluc2 (pSPICA-N2-E7) (HPV33) (UniProt P06429); assay: split reporter
T2 sequence: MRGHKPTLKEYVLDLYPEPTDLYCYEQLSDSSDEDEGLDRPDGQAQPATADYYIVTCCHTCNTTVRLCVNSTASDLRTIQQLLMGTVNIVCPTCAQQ

[3] = target: HPV18 E7 fused to Gluc2 (pSPICA-N2-E7) (HPV18) (UniProt P06788); assay: split reporter
[4] = target: HPV16 E7 oncoprotein fused to the Gluc2 fragment of Gaussia princeps luciferase (pSPICA-N2-E7) (HPV16) (UniProt P03129); assay: split reporter
[5] = target: HPV8 E7 fused to Gluc2 (pSPICA-N2-E7) (HPV8) (UniProt P06430); assay: split reporter
[6] = target: HPV16 E7 C-terminal domain (37-98 amino acids) fused to Gluc2 (HPV16) (UniProt P03129); assay: split reporter
[7] = target: FLAG-HPV18 E7 (pCineo-3xFLAG) (HPV18) (UniProt P06788); assay: co-IP
[8] = target: FLAG-HPV16 E7 (pCineo-3xFLAG) (HPV16) (UniProt P03129); assay: co-IP
[9] = target: FLAG-HPV8 E7 (pCineo-3xFLAG) (HPV8) (UniProt P06430); assay: co-IP
[10] = target: Casein Kinase 1 alpha (CK1α1) fused to Gluc1 (pSPICA-N1) (human) (UniProt P48729); assay: co-IP
[11] = target: NEMO (IKK regulatory subunit) fused to the Gluc1 fragment of G. princeps luciferase (pSPICA-N1) (human) (UniProt Q9Y6K9); assay: co-IP
[12] = target: ubiquitin E3 ligase β-TrCP fused to Gluc1 (pSPICA-N1) (human) (UniProt Q9Y297); assay: co-IP

| Substance | binding [1] | binding [2] | binding [3] | binding [4] | binding [5] | binding [6] | binding [7] | binding [8] | binding [9] | binding [10] | binding [11] | binding [12] |
| --- | --- | --- | --- | --- | --- | --- | --- | --- | --- | --- | --- | --- |
| Casein Kinase 1 gamma 1 (CK1γ1) fused to Gluc1 (pSPICA-N1) (from UniProt Q9HCP0 1-422) (enzyme) | binds | binds | binds | binds | binds |  |  |  |  |  |  |  |
| Casein Kinase 1 gamma 2 (CK1γ2) fused to Gluc1 (pSPICA-N1) (from UniProt P78368 1-415) (enzyme) | binds | binds | binds | binds | binds |  |  |  |  |  |  |  |
| NEMO (IKK regulatory subunit) fused to the Gluc1 fragment of G. princeps luciferase (pSPICA-N1) (from UniProt Q9Y6K9 1-419) | binds | binds | binds | binds | binds | binds | binds | binds | binds |  |  |  |
| FLAG-HPV16 E7 (pCineo-3xFLAG) (from UniProt P03129 1-98) |  |  |  |  |  |  |  |  |  | binds | binds | binds |
| Casein Kinase 1 gamma 3 (CK1γ3) fused to Gluc1 (pSPICA-N1) (from UniProt Q9Y6M4 1-447) (enzyme) | binds | binds | binds | binds | binds |  |  |  |  |  |  |  |
| ubiquitin E3 ligase β-TrCP fused to Gluc1 (pSPICA-N1) (from UniProt Q9Y297 1-605) | binds | binds | binds | binds | binds |  |  | binds |  |  |  |  |
| GSK3β fused to Gluc1 (pSPICA-N1) (from UniProt P49841 1-420) (enzyme) |  |  |  | no binding |  |  |  |  |  |  |  |  |
